Test results taken from patent publication US12607637B2, “Super-resolution morphology-correlated detection of labile zinc” (University of Cincinnati, priority 2020, dated 2026).
“Also recorded” adds a separate entry of the source.

Columns and labels:
[1] = Spectroscopic study: fluorescence quantum yield and pH stability in DMSO/HEPES; format: physicochemical
Description: The stock solution of NapBu-BPEA was prepared with DMSO of HPLC pure grade to make the concentration as 10 mM, and frozen after packing at −20° C. The sample solutions were diluted to the final concentration as 10 μM with 3 mL HEPES buffer (50 mM, 100 mM KNO3, 10% DMSO, pH 7.2) in quartz cuvettes with 1 cm path lengths. The fluorescent spectra were recorded upon the excitation of 450 nm.
The Zn^2+ titration spectra were recorded by adding in aliquots Zn^2+ solution from 0 to 15 μM into the NapBu-BPEA solution (10 μM). The detection limit of NapBu-BPEA was determined by collecting the fluorescence spectra of NapBu-BPEA for 6 times to obtain the background noise (a). The probe's fluorescent sensing selectivity of NapBu-BPEA was recorded after adding metal cation (1000 eq K^+, Na^+, Ca^2+, Mg^2+; 1 eq Cd^2+, Ni^2+, Cr^3+, Pb^2+, Al^3+, Co^2+, Fe^2+, Fe^3+, Ba^2+, Mn^2+) to the NapBu-BPEA solution. The fluorescence quantum yields were determined by using Ru(bpy)3^2+ (Φ=0.04) in DMSO/HEPES (v:v, 1:9)(λex=450 nm) as the reference. To determine binding constant, various amounts of Zn(NO3)2 (0˜9 mM) were added to NapBu-BPEA solution buffered with DMSO/HEPES (50 mM, pH 7.21, 100 mM KNO3) containing 10 mM EGTA. The pH stability was measured by recording the fluorescence spectra of NapBu-BPEA solution in the presence of Zn^2+ at different pH adjusted with KOH and HCl.

HeLa cells = assay: SIM imaging of intracellular labile Zn^2+ on ZnPT loading and TPEN scavenging; format: cell-based; details: ZnPT incubation
Description: In view of these promising results, a 1:2 mixture of ZnCl2 and pyrithione sodium salt, a cell-permeable Zn^2+ carrier (ZnPT) to transport exogenous Zn^2+ to cells, and a cell-permeable Zn^2+-chelating agent, TPEN, were used to evaluate the reversibility of fluorescence response to Zn^2+ in living cells according to methods described elsewhere. To determine the entry time of exogenous Zn^2+ into cells, NapBu-BPEA was incubated and an initial image was captured, after which 50 μM ZnPT (50 μM ZnCl2/100 μM pyrithione sodium salt) was used to replace the culture medium in dye-free and serum-free DMEM. […] The variance may be attributed to the difference in lipophilicity.
Next, NapBu-BPEA was investigated for its intracellular labile Zn^2+ imaging ability. Imaging experiments were performed in HeLa cells upon exogenous Zn^2+ loading via incubation with zinc pyrithione cmplex (ZnPT), a cell-permeable Zn^2+ carrier.
Intracellular labile Zn^2+ enhancement processes were tracked by recording SIM images every 2 min. […] While not desiring to be bound by theory, it is proposed that the butyl tail of NapBu-BPEA is responsible for the retained multiple organelle accumulation behavior of NapBu-BPEA upon Zn^2+ binding.

Compound: CCCCN1C(=O)c2cccc3c(NCCN(Cc4ccccn4)Cc4ccccn4)ccc(c23)C1=O [NapBu-BPEA, 2,4-(bis(pyridin-2-ylmethyl)aminoethyl)amino-N-n-butyl-1,8-naphthalimide]
- fluorescence quantum yield ([1]; after 1 eq Zn^2+, DMSO/HEPES 1:9, pH 7.2): 0.797
- relative fluorescence quantum yield ([1]; free probe, DMSO/HEPES 1:9, pH 7.2, reference Ru(bpy)3^2+): 0.318
- fluorescence localization upon exogenous Zn^2+ loading (HeLa cells): continued to exhibit fluorescence in the cytoplasm; also recorded: no fluorescence appeared in the nucleus
